# Laboratory results: the supplement of paper PMC8728848
# The list shows a part of the results.
# Legend:
# Assay in all cases: glycan array binding signal (z-score within array); higher = stronger binding
# Conditions in all cases: glycan notation: IUPAC condensed, linker removed
# [1] = biological target: Neu5Ac(a2-6)Gal(b1-3)GlcNAc(b1-3)[Gal(b1-4)GlcNAc(b1-6)]Gal(b1-4)Glc
# In short: (§1)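 Glycan array binding is given as a within-array Z-score, which can be read as non-binding when negative. The arrays, 3228 of them, came from the Consortium for Functional Glycomics database and were retained only where the protein sequence was available. Z-scores were averaged across arrays of the same protein sequence at different concentrations or buffers and across linkers.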
# Neu5Ac(a2-6)Gal(b1-4)Glc = biological target: Neu5Ac(a2-6)Gal(b1-4)Glc
# In short: as §1
# [2] = biological target: Neu5Ac(a2-6)Gal(b1-4)GlcNAc
# In short: as §1
# [3] = biological target: Neu5Ac(a2-6)Gal(b1-4)GlcNAc(b1-2)Man
# In short: as §1
# [4] = biological target: Neu5Ac(a2-6)Gal(b1-4)GlcNAc(b1-2)Man(a1-3)Man(b1-4)GlcNAc(b1-4)GlcNAc
# In short: as §1
# [5] = biological target: Neu5Ac(a2-6)Gal(b1-4)GlcNAc(b1-2)Man(a1-3)[Gal(b1-4)GlcNAc(b1-2)Man(a1-6)]Man(b1-4)GlcNAc(b1-4)GlcNAc
# In short: as §1
# [6] = biological target: Neu5Ac(a2-6)Gal(b1-4)GlcNAc(b1-2)Man(a1-3)[GlcNAc(b1-2)Man(a1-6)]Man(b1-4)GlcNAc(b1-4)GlcNAc
# In short: as §1
# [7] = biological target: Neu5Ac(a2-6)Gal(b1-4)GlcNAc(b1-2)Man(a1-3)[GlcNAc(b1-4)][Neu5Ac(a2-6)Gal(b1-4)GlcNAc(b1-2)Man(a1-6)]Man(b1-4)GlcNAc(b1-4)GlcNAc
# In short: as §1
# [8] = biological target: Neu5Ac(a2-6)Gal(b1-4)GlcNAc(b1-2)Man(a1-3)[Man(a1-6)]Man(b1-4)GlcNAc(b1-4)GlcNAc
# In short: as §1
# [9] = biological target: Neu5Ac(a2-6)Gal(b1-4)GlcNAc(b1-2)Man(a1-3)[Neu5Ac(a2-3)Gal(b1-4)GlcNAc(b1-2)Man(a1-6)]Man(b1-4)GlcNAc(b1-4)GlcNAc
# In short: as §1
# [10] = biological target: Neu5Ac(a2-6)Gal(b1-4)GlcNAc(b1-2)Man(a1-3)[Neu5Ac(a2-6)Gal(b1-4)GlcNAc(b1-2)Man(a1-6)]Man(b1-4)GlcNAc(b1-4)GlcNAc
# In short: as §1
# [11] = biological target: Neu5Ac(a2-6)Gal(b1-4)GlcNAc(b1-2)Man(a1-3)[Neu5Ac(a2-6)Gal(b1-4)GlcNAc(b1-2)Man(a1-6)]Man(b1-4)GlcNAc(b1-4)[Fuc(a1-6)]GlcNAc
# In short: as §1
# [12] = biological target: Neu5Ac(a2-6)Gal(b1-4)GlcNAc(b1-2)Man(a1-6)Man(b1-4)GlcNAc(b1-4)GlcNAc
# In short: as §1
# [13] = biological target: Neu5Ac(a2-6)Gal(b1-4)GlcNAc(b1-2)Man(a1-6)[Gal(b1-4)GlcNAc(b1-2)Man(a1-3)]Man(b1-4)GlcNAc(b1-4)GlcNAc
# In short: as §1
# [14] = biological target: Neu5Ac(a2-6)Gal(b1-4)GlcNAc(b1-2)Man(a1-6)[GlcNAc(b1-2)Man(a1-3)]Man(b1-4)GlcNAc(b1-4)GlcNAc
# In short: as §1
# [15] = biological target: Neu5Ac(a2-6)Gal(b1-4)GlcNAc(b1-2)Man(a1-6)[Man(a1-3)]Man(b1-4)GlcNAc(b1-4)GlcNAc
# In short: as §1
# [16] = biological target: Neu5Ac(a2-6)Gal(b1-4)GlcNAc(b1-2)[Neu5Ac(a2-6)Gal(b1-4)GlcNAc(b1-4)]Man(a1-3)[GlcNAc(b1-4)][Neu5Ac(a2-6)Gal(b1-4)GlcNAc(b1-2)[Neu5Ac(a2-6)Gal(b1-4)GlcNAc(b1-6)]Man(a1-6)]Man(b1-4)GlcNAc(b1-4)GlcNAc
# In short: as §1
# [17] = biological target: Neu5Ac(a2-6)Gal(b1-4)GlcNAc(b1-2)[Neu5Ac(a2-6)Gal(b1-4)GlcNAc(b1-4)]Man(a1-3)[GlcNAc(b1-4)][Neu5Ac(a2-6)Gal(b1-4)GlcNAc(b1-4)Man(a1-6)]Man(b1-4)GlcNAc(b1-4)GlcNAc
# In short: as §1
# [18] = biological target: Neu5Ac(a2-6)Gal(b1-4)GlcNAc(b1-2)[Neu5Ac(a2-6)Gal(b1-4)GlcNAc(b1-6)]Man(a1-6)[Neu5Ac(a2-6)Gal(b1-4)GlcNAc(b1-2)Man(a1-3)][GlcNAc(b1-4)]Man(b1-4)GlcNAc(b1-4)GlcNAc
# In short: as §1
# [19] = biological target: Neu5Ac(a2-6)Gal(b1-4)GlcNAc(b1-3)Gal(b1-3)GlcNAc
# In short: as §1
# [20] = biological target: Neu5Ac(a2-6)Gal(b1-4)GlcNAc(b1-3)Gal(b1-4)GlcNAc
# In short: as §1
# [21] = biological target: Neu5Ac(a2-6)Gal(b1-4)GlcNAc(b1-3)Gal(b1-4)GlcNAc(b1-2)Man(a1-3)[Neu5Ac(a2-6)Gal(b1-4)GlcNAc(b1-3)Gal(b1-4)GlcNAc(b1-2)Man(a1-6)]GalNAc
# In short: as §1
# [22] = biological target: Neu5Ac(a2-6)Gal(b1-4)GlcNAc(b1-3)Gal(b1-4)GlcNAc(b1-3)Gal(b1-4)GlcNAc
# In short: as §1
# [23] = biological target: Neu5Ac(a2-6)Gal(b1-4)GlcNAc(b1-3)Gal(b1-4)GlcNAc(b1-3)Gal(b1-4)GlcNAc(b1-2)Man(a1-3)[Neu5Ac(a2-6)Gal(b1-4)GlcNAc(b1-3)Gal(b1-4)GlcNAc(b1-3)Gal(b1-4)GlcNAc(b1-2)Man(a1-6)]GalNAc
# In short: as §1
# [24] = biological target: Neu5Ac(a2-6)Gal(b1-4)GlcNAc(b1-3)Gal(b1-4)GlcNAc(b1-3)GalNAc
# In short: as §1
# [25] = biological target: Neu5Ac(a2-6)Gal(b1-4)GlcNAc(b1-3)Gal(b1-4)GlcNAc(b1-3)[Neu5Ac(a2-6)Gal(b1-4)GlcNAc(b1-3)Gal(b1-4)GlcNAc(b1-6)]GalNAc
# In short: as §1
# [26] = biological target: Neu5Ac(a2-6)Gal(b1-4)GlcNAc(b1-3)Gal(b1-4)GlcNAc(b1-6)[Gal(b1-3)]GalNAc
# In short: as §1
# [27] = biological target: Neu5Ac(a2-6)Gal(b1-4)GlcNAc(b1-3)Gal(b1-4)[Fuc(a1-3)]GlcNAc(b1-3)Gal(b1-4)[Fuc(a1-3)]GlcNAc
# In short: as §1
# [28] = biological target: Neu5Ac(a2-6)Gal(b1-4)GlcNAc(b1-3)GalNAc
# In short: as §1
# [29] = biological target: Neu5Ac(a2-6)Gal(b1-4)GlcNAc(b1-3)[Neu5Ac(a2-6)Gal(b1-4)GlcNAc(b1-6)]GalNAc
# In short: as §1
# [30] = biological target: Neu5Ac(a2-6)Gal(b1-4)GlcNAc(b1-6)GalNAc
# In short: as §1
# [31] = biological target: Neu5Ac(a2-6)Gal(b1-4)GlcNAc(b1-6)[Gal(b1-3)GlcNAc(b1-3)]Gal(b1-4)Glc
# In short: as §1
# [32] = biological target: Neu5Ac(a2-6)Gal(b1-4)GlcNAc(b1-6)[Gal(b1-3)]GalNAc
# In short: as §1
# [33] = biological target: Neu5Ac(a2-6)Gal(b1-4)GlcNAc6S
# In short: as §1
# Neu5Ac(a2-6)GalNAc = biological target: Neu5Ac(a2-6)GalNAc
# In short: as §1
# [34] = biological target: Neu5Ac(a2-6)GalNAc(b1-4)GlcNAc
# In short: as §1
# [35] = biological target: Neu5Ac(a2-6)GalNAc(b1-4)GlcNAc6S
# In short: as §1
# [36] = biological target: Neu5Ac(a2-6)GlcNAc(b1-4)GlcNAc
# In short: as §1
binder,measurement,setting,value
Nc3LysM-2 (protein) AHVLQARQSVSCDFATAANTGDTCASFAAAWGITEAAFAKLNPGVSCPGNLIAGSEYCVIGTVSTGAPTTTKAATTSTTPPTTTTTTKATTLSTSTTSVSPTGPSPQMPSITSTCNKFYQVQSGDGCWSIEQAQGVSASDFMAWNKAVDAQCDNLWLGYYVCVGVKGGSSPPPTTTTKPASSSAPTPQMPNTVSNCKKFHKVVSGDGCWAIEQAAGISASDFAKWNPYVDAACDNLWLGYYVCIGV,glycan array binding signal (z-score),[1],-0.641
same,glycan array binding signal (z-score),Neu5Ac(a2-6)Gal(b1-4)Glc,0.285
same,glycan array binding signal (z-score),[2],0.375
same,glycan array binding signal (z-score),[3],0.422
same,glycan array binding signal (z-score),[4],-0.859
same,glycan array binding signal (z-score),[5],-0.256
same,glycan array binding signal (z-score),[6],-0.828
same,glycan array binding signal (z-score),[7],-1.03
same,glycan array binding signal (z-score),[8],-0.757
same,glycan array binding signal (z-score),[9],0.414
same,glycan array binding signal (z-score),[10],-0.134
same,glycan array binding signal (z-score),[11],1.3
same,glycan array binding signal (z-score),[12],-0.028
same,glycan array binding signal (z-score),[13],-0.149
same,glycan array binding signal (z-score),[14],-0.732
same,glycan array binding signal (z-score),[15],-0.459
same,glycan array binding signal (z-score),[16],-0.128
same,glycan array binding signal (z-score),[17],-0.677
same,glycan array binding signal (z-score),[18],1.41
same,glycan array binding signal (z-score),[19],-1.05
same,glycan array binding signal (z-score),[20],-1.51
same,glycan array binding signal (z-score),[21],-0.296
same,glycan array binding signal (z-score),[22],1.61
same,glycan array binding signal (z-score),[23],0.389
same,glycan array binding signal (z-score),[24],-0.847
same,glycan array binding signal (z-score),[25],-0.229
same,glycan array binding signal (z-score),[26],-0.099
same,glycan array binding signal (z-score),[27],0.118
same,glycan array binding signal (z-score),[28],-0.233
same,glycan array binding signal (z-score),[29],-0.555
same,glycan array binding signal (z-score),[30],-1.09
same,glycan array binding signal (z-score),[31],0.831
same,glycan array binding signal (z-score),[32],0.392
same,glycan array binding signal (z-score),[33],-0.272
same,glycan array binding signal (z-score),Neu5Ac(a2-6)GalNAc,-0.255
same,glycan array binding signal (z-score),[34],-1.14
same,glycan array binding signal (z-score),[35],-2.04
same,glycan array binding signal (z-score),[36],-0.544

# 2 neighbouring records out of the list so far, for reference:
binder,measurement,setting,value
Nc3LysM-2 (protein) AHVLQARQSVSCDFATAANTGDTCASFAAAWGITEAAFAKLNPGVSCPGNLIAGSEYCVIGTVSTGAPTTTKAATTSTTPPTTTTTTKATTLSTSTTSVSPTGPSPQMPSITSTCNKFYQVQSGDGCWSIEQAQGVSASDFMAWNKAVDAQCDNLWLGYYVCVGVKGGSSPPPTTTTKPASSSAPTPQMPNTVSNCKKFHKVVSGDGCWAIEQAAGISASDFAKWNPYVDAACDNLWLGYYVCIGV,glycan array binding signal (z-score),[2],0.375
same,glycan array binding signal (z-score),[3],0.422
